Experimental data taken from patent US20180244802A1 (DEUTSCHES ZENTRUM FUR NEURODEGENERATIVE ERKRANKUNGEN E V …, published 2018).
No constants are given. Whether binding was seen depends on the method and setting. Some results given as binding are weak or reduced against the parent protein; the word gives no strength. One block for each binder: values may come before it.

Legend:
[1] = target: human ionotropic glutamate N-methyl-D-aspartate 1 receptor (GRIN1) (human) (UniProt Q05586); assay: immunofluorescence staining of HEK293 cells transfected with wildtype NR1
[2] = target: human ionotropic glutamate N-methyl-D-aspartate 1 receptor (GRIN1) (human) (UniProt Q05586); assay: immunofluorescence staining of NR1-transfected HEK293 cells with culture supernatant
[3] = target: NMDAR in the mouse hippocampus (brain sections, primary hippocampal neurons) (mouse) (UniProt P35438); assay: immunofluorescence staining of fixed brain sections

binding [1]: binds
binding [2]: binds
binding [3]: binds
B1: 008-218 (antibody, human IgG1, V domains shown)
VH: EVQLVESGGGLVQPGRSLRLSCAASGFTFDDYAMHWVRQVPGKGLEWVSGISWSSGSIGYADSVKGRFTISRDNAKNSLYLQMNSLRAEDTALYYCAKDRASSWYAYGMDVWGQGTLVTV
VL: NFMLTQPHSVSESPGKTVTISCTRSSGSIASNYVQWYQQRPGSSPTTVIYDDNQRPSGVPNRFSGSIDSSSNSASLIISGLKTEDEADYYCQSTRVFGGGTKLTVL
notes: also called 008-218-HC; 008-218-LC

B2: 007-169 (antibody, V domains shown)
VH: EVQLVQSGAEVKKPGESLKISCKGSGYSFTSYWIGWVRQMPGKGLEWMGIIYPGDSDTRYSPSFQGQVTISADKSISTAYLQWSSLKASDTAMYYCARDYGDYYFDYWGQGTLVTVSS
VL: QSALTQPRSVSGSPGQSVTISCTGTSSDVGGYNYVSWYQQHPGKAPKLMIYDVSKRPSGVPDRFSGSKSGNTASLTISGLQAEDEADYYCCSYAGSYTGVFGEGTKLTVL
notes: also called 007-169-HC; 007-169-LC
binding [1]: binds
binding [2]: binds
binding [3]: binds

B3: 007-142 (antibody, V domains shown)
VH: B2 VH
VL: LTQPRSVSGSPGQSVTISCTGTSSDVGGYNYVSWYQQHPGKAPKLMIYDVSKRPSGVPDRFSGSKSGNTASLTISGLQAEDEADYYCCSYAGSYTGVFGGGTKLTVL
notes: also called 007-142-HC; 007-142-LC
binding [1]: binds
binding [2]: binds
binding [3]: binds

binding [1]: binds
binding [2]: binds
binding [3]: binds
B4: 007-124 (antibody, human IgG1, V domains shown)
VH: EVQLVESGGGVGRPGGSLRLSCAASGFTFDDYGMSWVRQVPGKGLEWVSGINWSGADTGYADSVKGRFTISRDNAKNSLYLQMNSLRVEDTALYHCAREVGIAVTGYWFDPWGQGTLVTV
VL: SYELTQPPSVSVAPGQTARISCGGNHSESVHWYQQKPGQAPVLVVYDDSDRPSGIPERFSGSKSGNTATLTISRVEGGDEAEYYCQVWDSSSDHPGVVFGGGTKLTVL
notes: also called 007-124-HC; 007-124-LC
